Experimental findings from paper PMC3397948, “Cytoplasmic Sulfurtransferases in the Purple Sulfur Bacterium Allochromatium vinosum: Evidence for Sulfur Transfer from DsrEFH to DsrC” (PLoS ONE, 2012) are described below.

Results are given in words; binding and its absence hold for the method and conditions named. Some results given as binding are weak or reduced against the parent protein; the word gives no strength.

The target of assay [1] is T1, DsrEFH from Allochromatium vinosum (DsrE2F2H2 heterohexamer), wild type (Allochromatium vinosum) (UniProt O87896+O87897+O87898).
T1 sequence 1: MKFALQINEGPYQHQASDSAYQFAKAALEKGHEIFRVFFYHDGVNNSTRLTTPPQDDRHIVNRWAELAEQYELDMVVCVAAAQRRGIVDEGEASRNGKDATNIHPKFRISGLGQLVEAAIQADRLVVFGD
T1 sequence 2: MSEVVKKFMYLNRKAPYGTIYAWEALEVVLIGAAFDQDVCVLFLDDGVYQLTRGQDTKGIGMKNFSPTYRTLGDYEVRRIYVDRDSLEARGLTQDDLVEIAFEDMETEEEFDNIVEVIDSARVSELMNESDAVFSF
T1 sequence 3: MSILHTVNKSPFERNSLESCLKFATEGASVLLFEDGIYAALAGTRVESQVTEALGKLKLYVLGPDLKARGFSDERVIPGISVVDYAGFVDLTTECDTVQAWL
Put plainly: native gel or EMSA; 200 pmol DsrEFH and 400 pmol DsrC incubated 30 min at 30°C in 5 mM HEPES pH 7.8, 0.1 M KCl, 0.01% Tween 20, 25 µM TCEP; native polyacrylamide gel (7.5%) at 4°C; shifted bands cut out and run on SDS-PAGE (15%); both purified. Background: In EMSA bound probe runs differently from free probe, usually more slowly.

Assay [2] has as its target T1, DsrEFH from Allochromatium vinosum (DsrE2F2H2 heterohexamer), wild type (Allochromatium vinosum). Put plainly: SPR; Biacore 2000, CM5 chip, DsrEFH amine-coupled (~600 RU); DsrC proteins reduced with 25 µM TCEP and injected (40-1280 nM wild type; 80 nM for the comparison of mutants), 25°C, 10 mM HEPES, 150 mM NaCl, 3 mM EDTA, 0.005% Tween 20, pH 7.4; both purified.

B1: DsrC from Allochromatium vinosum, wild type (natural protein, UniProt O87899 1-112, looked up)
chain: MADTIEVDGKQFAVDEEGYLSNLNDWVPGVADVMAKQDNLELTEEHWDIINFLREYYEEYQIAPAVRVLTKAVGKKLGKEKGNSKYLYSLFPYGPAKQACRFAGLPKPTGCV
notes: DsrC, Allochromatium vinosum; conserved Cys100 and Cys111 (Cys111 in the penultimate position of the protein); Reduced with 25 uM TCEP before SPR; also called DsrC wild type; DsrC wt; source: overproduced and purified as described earlier [22], [8], [3]; not shown: His-tag, N-terminal, kept
With B1, the binding entry in assay [1] and in assay [2] was “binds” each time.

B2: DsrC-Ser111 (DsrC with Cys111 replaced by serine) (protein, UniProt O87899 1-112)
chain: MADTIEVDGKQFAVDEEGYLSNLNDWVPGVADVMAKQDNLELTEEHWDIINFLREYYEEYQIAPAVRVLTKAVGKKLGKEKGNSKYLYSLFPYGPAKQACRFAGLPKPTGSV
As for B2, the binding entry in assay [2] is on record as “binds weakly”.

B3: DsrC-Ser100/111 double mutant (DsrC with Cys100 and Cys111 replaced by serine) (protein, UniProt O87899 1-112)
chain: MADTIEVDGKQFAVDEEGYLSNLNDWVPGVADVMAKQDNLELTEEHWDIINFLREYYEEYQIAPAVRVLTKAVGKKLGKEKGNSKYLYSLFPYGPAKQASRFAGLPKPTGSV
With B3, the binding entry in assay [2] was “binds weakly”.

B4: DsrC-Ser100 (DsrC with Cys100 replaced by serine) (protein, UniProt O87899 1-112)
chain: MADTIEVDGKQFAVDEEGYLSNLNDWVPGVADVMAKQDNLELTEEHWDIINFLREYYEEYQIAPAVRVLTKAVGKKLGKEKGNSKYLYSLFPYGPAKQASRFAGLPKPTGCV
As for B4, in assay [2], the binding result is “binds”.
